This test has as its target PREPL β-propeller domain alone (MAPPIT bait) (human) (UniProt Q4J6C6). Kind of test: two-hybrid.

No constants are given. Whether binding was seen depends on the method and setting.

B1: STX5 (protein, UniProt Q13190 1-355)
chain: MIPRKRYGSKNTDQGVYLGLSKTQVLSPATAGSSSSDIAPLPPPVTLVPPPPDTMSCRDRTQEFLSACKSLQTRQNGIQTNKPALRAVRQRSEFTLMAKRIGKDLSNTFAKLEKLTILAKRKSLFDDKAVEIEELTYIIKQDINSLNKQIAQLQDFVRAKGSQSGRHLQTHSNTIVVSLQSKLASMSNDFKSVLEVRTENLKQQRSRREQFSRAPVSALPLAPNHLGGGAVVLGAESHASKDVAIDMMDSRTSQQLQLIDEQDSYIQSRADTMQNIESTIVELGSIFQQLAHMVKEQEETIQRIDENVLGAQLDVEAAHSEILKYFQSVTSNRWLMVKIFLILIVFFIIFVVFLA
B1: the binding result is “no binding”.

The values above are taken from paper doi:10.1101/2023.12.18.572145.
